At least one compound was matched to its structure with a doubt left.
Tested on: DUX4 expression
Assay: Chaetocin induction of DUX4 expression, immunofluorescence staining
Format: cell-based, human
Settings: FIG. 4A
Procedure: Briefly, stem cell lines were cultured in commercially available media, mTeSR (Stem Cell Technologies) or M2 (Genea Biocells) and dissociated into single cells using Passaging Solution (Genea Biocells). Cells were plated in Myogenic Induction Medium to induce myogenic differentiation and incubated at 37° C. and 5% CO2 for 7 to 10 days while performing media changes every other day. Once confluent, cells were dissociated into single cells using Passaging Solution and replated in Myoblast Medium (Genea Biocells) while performing media changes every other day. After 7-10 days the medium was switched to Myotube Medium (Genea Biocells) without any further media changes. After 4-7 days many multi-nucleated myotubes were observed and the cells were analyzed using a suitable assay.
In myotubes from FSHD-affected cell lines DUX4 expression was observed by immunofluorescence staining using DUX4 E5-5 antibody, either spontaneously or by transfecting cells with a DUX4 expression vector (FIG. 3). In some cases, the expression of DUX4 in myogenic cells may be a rare event. Thus, to increase the assay window and sensitivity, chaetocin was used to increase the number of cells expressing DUX4 (FIG. 4A). […] In some examples, compounds may be screened in the presence of 50-200 nM chaetocin, a compound described to result in elevated levels of DUX4 expression in human myoblast cultures (FIG. 2).

CN1C(=O)[C@@]23C[C@]4([C@]56C[C@@]78SS[C@@](CO)(C(=O)N7[C@H]5Nc5ccccc56)N(C)C8=O)c5ccccc5N[C@@H]4N2C(=O)[C@]1(CO)SS3 [chaetocin]
percentage of DUX4+ nuclei following exposure: increases

Reference: patent US10933068B2, “Modulators of DUX4 for regulation of muscle function” (GENEA BIOCELLS USA (HOLDINGS), INC., priority 2016, dated 2021)
